Reference: the supplement of paper PMC10849652
The other results are listed elsewhere or left out.

Amino acid sequences for entries named in this document (tags omitted). A change or cut given only in a name is not applied to a line headed by its entry.
UniProt Q96AT9: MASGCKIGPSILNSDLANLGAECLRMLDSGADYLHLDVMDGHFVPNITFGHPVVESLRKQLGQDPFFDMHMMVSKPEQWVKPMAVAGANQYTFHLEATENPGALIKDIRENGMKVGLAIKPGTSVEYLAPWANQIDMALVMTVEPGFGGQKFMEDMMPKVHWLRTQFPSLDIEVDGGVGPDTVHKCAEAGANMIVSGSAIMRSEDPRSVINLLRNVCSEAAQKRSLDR
UniProt P60602: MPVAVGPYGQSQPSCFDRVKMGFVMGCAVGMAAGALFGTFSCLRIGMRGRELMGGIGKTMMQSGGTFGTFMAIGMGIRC
UniProt Q5VT52: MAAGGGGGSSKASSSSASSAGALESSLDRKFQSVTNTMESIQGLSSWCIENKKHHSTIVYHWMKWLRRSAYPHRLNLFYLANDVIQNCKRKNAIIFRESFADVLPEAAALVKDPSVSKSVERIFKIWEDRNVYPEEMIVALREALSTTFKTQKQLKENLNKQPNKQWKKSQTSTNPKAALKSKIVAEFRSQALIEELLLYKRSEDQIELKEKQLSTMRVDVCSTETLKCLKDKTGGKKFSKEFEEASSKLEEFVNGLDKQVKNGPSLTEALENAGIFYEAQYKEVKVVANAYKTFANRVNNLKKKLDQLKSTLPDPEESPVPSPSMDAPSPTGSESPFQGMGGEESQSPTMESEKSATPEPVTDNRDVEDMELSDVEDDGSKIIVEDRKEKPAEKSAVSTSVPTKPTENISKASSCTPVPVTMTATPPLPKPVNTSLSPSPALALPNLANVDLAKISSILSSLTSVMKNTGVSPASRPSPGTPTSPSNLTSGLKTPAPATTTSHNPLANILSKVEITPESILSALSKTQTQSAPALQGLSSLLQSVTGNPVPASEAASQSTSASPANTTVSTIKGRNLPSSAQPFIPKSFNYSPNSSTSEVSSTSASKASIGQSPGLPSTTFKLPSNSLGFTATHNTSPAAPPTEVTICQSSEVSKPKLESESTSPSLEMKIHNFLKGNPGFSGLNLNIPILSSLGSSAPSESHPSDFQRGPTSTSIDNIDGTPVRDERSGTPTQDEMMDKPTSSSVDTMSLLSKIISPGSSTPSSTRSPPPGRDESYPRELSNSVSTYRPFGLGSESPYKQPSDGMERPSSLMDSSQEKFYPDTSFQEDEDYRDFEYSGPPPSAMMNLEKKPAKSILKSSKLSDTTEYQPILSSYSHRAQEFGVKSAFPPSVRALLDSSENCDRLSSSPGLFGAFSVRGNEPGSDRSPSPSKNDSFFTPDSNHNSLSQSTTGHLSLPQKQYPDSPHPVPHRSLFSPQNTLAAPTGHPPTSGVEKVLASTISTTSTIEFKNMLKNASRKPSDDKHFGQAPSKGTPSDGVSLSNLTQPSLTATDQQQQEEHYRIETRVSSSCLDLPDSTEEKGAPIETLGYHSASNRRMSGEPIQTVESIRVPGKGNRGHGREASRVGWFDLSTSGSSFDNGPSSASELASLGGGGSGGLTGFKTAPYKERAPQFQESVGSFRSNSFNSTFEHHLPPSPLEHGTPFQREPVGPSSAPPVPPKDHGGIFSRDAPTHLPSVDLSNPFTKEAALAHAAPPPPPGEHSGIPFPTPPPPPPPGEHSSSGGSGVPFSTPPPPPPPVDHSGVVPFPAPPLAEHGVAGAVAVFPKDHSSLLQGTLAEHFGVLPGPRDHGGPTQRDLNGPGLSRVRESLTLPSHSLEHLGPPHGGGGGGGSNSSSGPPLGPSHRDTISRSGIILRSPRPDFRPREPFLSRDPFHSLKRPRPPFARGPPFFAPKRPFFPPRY
UniProt P78317: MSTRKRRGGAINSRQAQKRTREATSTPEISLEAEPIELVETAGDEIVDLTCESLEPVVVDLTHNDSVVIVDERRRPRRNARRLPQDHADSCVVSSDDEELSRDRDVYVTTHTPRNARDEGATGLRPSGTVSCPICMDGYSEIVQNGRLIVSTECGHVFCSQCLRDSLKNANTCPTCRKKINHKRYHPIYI
UniProt Q92834: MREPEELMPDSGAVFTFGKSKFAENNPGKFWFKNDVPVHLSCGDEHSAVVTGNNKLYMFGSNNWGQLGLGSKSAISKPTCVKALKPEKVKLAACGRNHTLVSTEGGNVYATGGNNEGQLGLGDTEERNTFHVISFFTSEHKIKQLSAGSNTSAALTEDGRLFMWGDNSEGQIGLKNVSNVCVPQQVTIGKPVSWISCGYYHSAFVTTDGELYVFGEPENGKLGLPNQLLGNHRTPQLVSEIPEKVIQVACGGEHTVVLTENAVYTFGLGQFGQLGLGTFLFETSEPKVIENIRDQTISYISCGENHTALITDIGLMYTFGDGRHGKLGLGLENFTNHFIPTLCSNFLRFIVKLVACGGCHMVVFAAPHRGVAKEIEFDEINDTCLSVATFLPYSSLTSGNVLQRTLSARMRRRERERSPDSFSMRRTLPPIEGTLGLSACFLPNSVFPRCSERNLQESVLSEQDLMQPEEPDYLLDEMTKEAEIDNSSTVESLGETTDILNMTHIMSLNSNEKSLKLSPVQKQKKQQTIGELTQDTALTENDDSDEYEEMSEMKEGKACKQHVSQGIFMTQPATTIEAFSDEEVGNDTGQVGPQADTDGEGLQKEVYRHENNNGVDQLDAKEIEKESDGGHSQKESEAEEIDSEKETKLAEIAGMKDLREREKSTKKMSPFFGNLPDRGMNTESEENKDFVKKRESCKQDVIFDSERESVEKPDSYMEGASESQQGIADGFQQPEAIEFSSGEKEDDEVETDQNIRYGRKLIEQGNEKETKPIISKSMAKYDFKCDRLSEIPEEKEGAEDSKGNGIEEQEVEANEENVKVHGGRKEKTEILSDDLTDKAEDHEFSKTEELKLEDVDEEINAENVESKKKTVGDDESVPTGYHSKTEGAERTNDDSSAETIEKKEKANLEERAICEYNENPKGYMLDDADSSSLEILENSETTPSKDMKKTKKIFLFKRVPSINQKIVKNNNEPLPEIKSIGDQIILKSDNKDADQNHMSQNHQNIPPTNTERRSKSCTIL
UniProt Q15349, whole entry, looked up: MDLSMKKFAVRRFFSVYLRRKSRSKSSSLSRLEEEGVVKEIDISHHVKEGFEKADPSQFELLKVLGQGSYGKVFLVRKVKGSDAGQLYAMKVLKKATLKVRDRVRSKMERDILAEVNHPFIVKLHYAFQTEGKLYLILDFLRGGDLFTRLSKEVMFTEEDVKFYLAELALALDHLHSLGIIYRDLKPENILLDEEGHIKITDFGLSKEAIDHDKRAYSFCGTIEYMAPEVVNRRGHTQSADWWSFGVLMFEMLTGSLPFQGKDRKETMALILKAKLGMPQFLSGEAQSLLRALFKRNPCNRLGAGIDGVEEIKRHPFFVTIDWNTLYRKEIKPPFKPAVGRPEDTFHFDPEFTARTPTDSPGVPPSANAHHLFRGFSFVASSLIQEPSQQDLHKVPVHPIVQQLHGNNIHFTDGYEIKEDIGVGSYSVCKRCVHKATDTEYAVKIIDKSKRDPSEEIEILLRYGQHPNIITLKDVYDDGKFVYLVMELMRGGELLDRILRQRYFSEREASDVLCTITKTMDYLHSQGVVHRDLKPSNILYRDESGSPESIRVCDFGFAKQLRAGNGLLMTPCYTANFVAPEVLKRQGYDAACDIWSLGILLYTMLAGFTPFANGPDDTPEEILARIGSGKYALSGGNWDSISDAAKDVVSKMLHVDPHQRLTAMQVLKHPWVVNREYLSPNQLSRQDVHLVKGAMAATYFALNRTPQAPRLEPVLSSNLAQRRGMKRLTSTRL
UniProt Q969K3: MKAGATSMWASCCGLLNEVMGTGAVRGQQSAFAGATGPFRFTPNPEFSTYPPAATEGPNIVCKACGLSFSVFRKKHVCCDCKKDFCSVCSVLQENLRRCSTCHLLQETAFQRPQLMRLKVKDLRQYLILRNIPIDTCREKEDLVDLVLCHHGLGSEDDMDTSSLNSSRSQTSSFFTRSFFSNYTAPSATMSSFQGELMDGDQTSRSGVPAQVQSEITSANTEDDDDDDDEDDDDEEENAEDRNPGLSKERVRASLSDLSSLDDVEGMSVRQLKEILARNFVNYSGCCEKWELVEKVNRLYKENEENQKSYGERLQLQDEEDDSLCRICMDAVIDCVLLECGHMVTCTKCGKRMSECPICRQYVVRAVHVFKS
UniProt Q96EP0: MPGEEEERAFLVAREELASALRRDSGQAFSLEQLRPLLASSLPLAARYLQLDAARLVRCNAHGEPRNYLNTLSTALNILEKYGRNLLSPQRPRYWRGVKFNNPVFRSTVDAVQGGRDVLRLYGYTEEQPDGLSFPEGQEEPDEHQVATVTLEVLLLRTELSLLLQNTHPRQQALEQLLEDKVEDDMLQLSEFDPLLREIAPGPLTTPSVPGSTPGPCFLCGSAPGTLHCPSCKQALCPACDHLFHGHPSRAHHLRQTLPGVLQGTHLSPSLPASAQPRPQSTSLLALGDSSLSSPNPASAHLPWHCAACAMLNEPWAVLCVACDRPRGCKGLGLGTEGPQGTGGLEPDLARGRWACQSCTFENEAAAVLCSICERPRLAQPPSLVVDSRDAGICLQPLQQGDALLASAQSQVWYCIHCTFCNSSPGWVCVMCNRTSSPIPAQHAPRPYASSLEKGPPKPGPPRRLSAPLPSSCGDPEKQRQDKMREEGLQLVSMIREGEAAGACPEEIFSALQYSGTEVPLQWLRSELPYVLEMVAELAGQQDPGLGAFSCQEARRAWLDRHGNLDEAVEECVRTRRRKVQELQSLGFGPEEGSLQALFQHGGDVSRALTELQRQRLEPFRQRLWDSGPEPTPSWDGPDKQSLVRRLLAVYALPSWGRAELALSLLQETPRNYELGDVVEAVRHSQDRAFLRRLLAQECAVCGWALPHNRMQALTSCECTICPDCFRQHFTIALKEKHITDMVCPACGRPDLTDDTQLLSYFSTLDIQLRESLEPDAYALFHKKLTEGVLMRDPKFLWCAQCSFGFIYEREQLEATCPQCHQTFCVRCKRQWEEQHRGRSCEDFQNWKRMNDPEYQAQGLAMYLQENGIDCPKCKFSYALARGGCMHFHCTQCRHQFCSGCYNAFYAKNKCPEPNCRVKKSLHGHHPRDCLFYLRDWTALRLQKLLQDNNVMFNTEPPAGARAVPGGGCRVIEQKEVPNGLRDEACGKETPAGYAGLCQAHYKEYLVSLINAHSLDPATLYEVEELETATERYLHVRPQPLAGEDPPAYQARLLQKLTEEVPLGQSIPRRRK
UniProt Q9UBS0: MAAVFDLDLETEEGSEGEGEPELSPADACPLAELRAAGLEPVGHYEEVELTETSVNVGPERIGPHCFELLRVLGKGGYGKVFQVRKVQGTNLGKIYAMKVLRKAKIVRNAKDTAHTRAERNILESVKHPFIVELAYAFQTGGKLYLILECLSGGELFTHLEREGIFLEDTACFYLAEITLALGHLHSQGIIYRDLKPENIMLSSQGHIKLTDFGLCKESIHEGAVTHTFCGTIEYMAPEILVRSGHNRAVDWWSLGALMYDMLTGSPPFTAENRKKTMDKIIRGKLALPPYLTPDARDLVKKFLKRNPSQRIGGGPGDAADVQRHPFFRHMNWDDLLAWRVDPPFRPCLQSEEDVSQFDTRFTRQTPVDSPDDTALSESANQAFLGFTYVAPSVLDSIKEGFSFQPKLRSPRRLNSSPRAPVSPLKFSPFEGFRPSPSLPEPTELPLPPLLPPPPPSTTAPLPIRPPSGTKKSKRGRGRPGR
UniProt Q96P16: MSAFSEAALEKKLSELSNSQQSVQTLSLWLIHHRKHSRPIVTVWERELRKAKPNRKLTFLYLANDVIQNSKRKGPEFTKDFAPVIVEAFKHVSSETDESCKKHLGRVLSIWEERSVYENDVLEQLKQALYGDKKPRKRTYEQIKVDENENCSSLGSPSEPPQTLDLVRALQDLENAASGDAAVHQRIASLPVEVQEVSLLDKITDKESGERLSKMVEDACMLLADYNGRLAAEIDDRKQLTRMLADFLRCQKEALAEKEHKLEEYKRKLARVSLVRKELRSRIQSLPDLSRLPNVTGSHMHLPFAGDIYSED
UniProt Q9NYV6: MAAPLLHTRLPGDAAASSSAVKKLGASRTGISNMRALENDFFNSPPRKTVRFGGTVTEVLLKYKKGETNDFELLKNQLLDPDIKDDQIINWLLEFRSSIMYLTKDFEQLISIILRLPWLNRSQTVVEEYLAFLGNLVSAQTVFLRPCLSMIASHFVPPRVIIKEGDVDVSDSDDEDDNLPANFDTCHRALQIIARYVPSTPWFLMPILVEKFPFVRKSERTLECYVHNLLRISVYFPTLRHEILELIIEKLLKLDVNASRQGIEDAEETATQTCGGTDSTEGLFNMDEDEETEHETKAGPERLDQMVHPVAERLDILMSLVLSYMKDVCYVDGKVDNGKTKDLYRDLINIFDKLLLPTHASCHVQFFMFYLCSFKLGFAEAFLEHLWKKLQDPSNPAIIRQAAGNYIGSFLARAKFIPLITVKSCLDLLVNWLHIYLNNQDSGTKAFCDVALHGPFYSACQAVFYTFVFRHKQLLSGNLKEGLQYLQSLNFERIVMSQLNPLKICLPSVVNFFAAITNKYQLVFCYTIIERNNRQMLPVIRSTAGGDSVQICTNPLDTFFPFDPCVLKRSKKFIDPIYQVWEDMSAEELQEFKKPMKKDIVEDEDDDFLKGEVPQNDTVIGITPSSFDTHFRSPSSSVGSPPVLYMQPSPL

Tests used:
Assay in all cases: log2 fold change, soluble protein after heating vs DMSO (PISA); higher = thermal stabilisation; K562 cells, 10 uM, 30 min; active = over 0.2 and 3.5 SD of the protein, either way, in both replicates (recomputed)
[1] = compound: CS(=O)(=O)c1ccc(-c2cnc(N)c(C(=O)Nc3ccccc3)n2)cc1
Outline: (§1)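 Soluble protein was quantified by TMTpro 16plex LC-MS/MS after channel sums were equalised. It was obtained as the supernatant after 21,000xg for 90 min from pooled aliquots of K562 cells (2×10^6 cells/mL, 10 μM compound, 30 min) heated for 3 min across 48°C-58°C and extracted in PBS with 0.5% NP-40 at 4°C. Thermal stability values are relative to control samples and come from duplicates. They are given as log2 fold changes.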

crizotinib = compound: C[C@@H](Oc1cc(-c2cnn(C3CCNCC3)c2)cnc1N)c1c(Cl)ccc(F)c1Cl [crizotinib]
Outline: as §1

[2] = compound: C[C@@H]1COCCN1C2=NC(=NC(=C2)C3(CC3)S(=O)(=O)C)C4=C5C=CNC5=CC=C4
Outline: as §1

[3] = compound: C[C@H](C1=CC=C(C=C1)C(=O)NC2=C3C=CNC3=NC=C2)N
Outline: as §1

gandotinib = compound: Cc1cc(Nc2cc(CN3CCOCC3)c3nc(C)c(Cc4ccc(Cl)cc4F)n3n2)n[nH]1 [gandotinib]
Outline: as §1

[4] = compound: Cc1cc(SCc2sc(-c3ccc(C(F)(F)F)cc3)nc2C)ccc1OCC(=O)O
Outline: as §1

doramapimod = compound: Cc1ccc(-n2nc(C(C)(C)C)cc2NC(=O)Nc2ccc(OCCN3CCOCC3)c3ccccc23)cc1 [doramapimod]
Outline: as §1

ispinesib = compound: Cc1ccc(C(=O)N(CCCN)[C@@H](c2nc3cc(Cl)ccc3c(=O)n2Cc2ccccc2)C(C)C)cc1 [ispinesib]
Outline: as §1

tozasertib = compound: Cc1cc(Nc2cc(N3CCN(C)CC3)nc(Sc3ccc(NC(=O)C4CC4)cc3)n2)n[nH]1 [tozasertib]
Outline: as §1

duvelisib = compound: C[C@H](Nc1ncnc2nc[nH]c12)c1cc2cccc(Cl)c2c(=O)n1-c1ccccc1 [duvelisib]
Outline: as §1

Row | Target | log2 fold change [1] | log2 fold change (crizotinib) | log2 fold change [2] | log2 fold change [3] | log2 fold change (gandotinib) | log2 fold change [4] | log2 fold change (doramapimod) | log2 fold change (ispinesib) | log2 fold change (tozasertib) | log2 fold change (duvelisib)
1 | RPS27A (UniProt P62979) | inactive: 0.05 | inactive: 0.053 | inactive: -0.229 | inactive: 0.088 | inactive: 0.347 | inactive: 0 | inactive: -0.049 | inactive: -0.047 | – | –
2 | RPUSD4 (UniProt Q96CM3) | inactive: -0.041 | – | inactive: -0.106 | inactive: 0.33 | inactive: 0.184 | – | – | inactive: -0.208 | inactive: 0.012 | –
3 | ROS1 (UniProt P08922) | inactive: 0.14 | inactive: -0.051 | – | inactive: 0.224 | inactive: -0.317 | – | inactive: 0.222 | – | – | –
4 | RPS25 (UniProt P62851) | inactive: -0.101 | inactive: -0.041 | inactive: -0.286 | inactive: 0.239 | inactive: 0.239 | inactive: 0.032 | inactive: 0.178 | inactive: -0.148 | – | –
5 | RPS15 (UniProt P62841) | inactive: 0.032 | inactive: 0 | inactive: -0.174 | active: 0.45 | inactive: 0.137 | inactive: -0.045 | inactive: 0.032 | inactive: -0.003 | – | –
6 | RPUSD3 (UniProt Q6P087) | – | – | – | – | inactive: -0.132 | – | – | – | – | –
7 | RPLP0 (UniProt F8VWV4) | inactive: 0.026 | inactive: 0.138 | inactive: -0.218 | inactive: 0.296 | – | – | inactive: 0.149 | – | inactive: -0.058 | –
8 | RPP25L (UniProt Q8N5L8) | inactive: -0.031 | inactive: 0.059 | inactive: -0.014 | inactive: 0.145 | inactive: 0.045 | inactive: -0.019 | inactive: -0.005 | inactive: -0.027 | – | –
9 | RPL37 (UniProt P61927) | inactive: -0.11 | inactive: 0.003 | – | inactive: 0.424 | inactive: 0.138 | inactive: -0.175 | inactive: 0.281 | inactive: -0.25 | inactive: 0.01 | inactive: -0.311
10 | RPF2 (UniProt Q9H7B2) | – | – | – | – | inactive: 0.151 | – | – | – | – | –
11 | RPS13 (UniProt P62277) | inactive: -0.053 | inactive: 0.076 | inactive: -0.548 | inactive: 0.403 | inactive: 0.296 | inactive: -0.013 | inactive: 0.247 | inactive: -0.195 | – | –
12 | RNF26 (UniProt Q9BY78) | – | – | – | – | inactive: 0.008 | – | – | inactive: -0.829 | – | –
13 | RPE (UniProt Q96AT9) | – | inactive: -0.02 | inactive: 0.091 | inactive: -0.034 | – | inactive: -0.008 | inactive: -0.038 | inactive: 0.039 | inactive: 0.068 | inactive: 0.149
14 | RPS7, A0A2R8Y623 | inactive: -0.106 | inactive: -0.103 | – | – | – | – | inactive: -0.158 | inactive: -0.045 | inactive: 0.195 | –
15 | ROMO1 (UniProt P60602) | inactive: 0.023 | – | inactive: 0.121 | inactive: 0.064 | inactive: -0.033 | inactive: -0.059 | – | inactive: -0.061 | – | –
16 | RRP1 (UniProt P56182) | – | inactive: 0.094 | – | – | inactive: 0.108 | – | inactive: 0.099 | inactive: -0.154 | – | –
17 | RPRD2 (UniProt Q5VT52) | – | inactive: -0.145 | inactive: 0.118 | – | – | – | inactive: -0.166 | inactive: -0.138 | inactive: 0.003 | –
18 | RNF40 (UniProt O75150) | inactive: -0.107 | – | – | inactive: -0.084 | – | inactive: 0.1 | – | inactive: -0.142 | inactive: 0.415 | inactive: 0.209
19 | RPL31 (UniProt P62899) | inactive: -0.08 | inactive: 0.079 | inactive: -0.56 | inactive: 0.396 | inactive: 0.35 | inactive: -0.001 | inactive: 0.173 | inactive: -0.167 | – | –

Row | Target | log2 fold change [1] | log2 fold change (crizotinib) | log2 fold change [2] | log2 fold change [3] | log2 fold change (gandotinib) | log2 fold change [4] | log2 fold change (doramapimod) | log2 fold change (ispinesib) | log2 fold change (tozasertib) | log2 fold change (duvelisib)
20 | RPL22L1 (UniProt Q6P5R6) | inactive: 0.064 | inactive: -0.023 | inactive: 0.024 | – | – | – | inactive: 0.005 | – | – | –
21 | RPP30 (UniProt Q5VU11) | – | inactive: 0.049 | – | – | inactive: 0.06 | inactive: 0.106 | inactive: 0.039 | inactive: -0.224 | – | inactive: -0.032
22 | ROGDI (UniProt Q9GZN7) | – | – | – | inactive: 0.101 | inactive: -0.113 | – | – | inactive: -0.344 | – | –
23 | RPS3A (UniProt D6R9B6) | inactive: -0.014 | – | – | – | – | inactive: 0.069 | – | – | – | –
24 | RNF4 (UniProt P78317) | inactive: 0.04 | – | inactive: 0.089 | – | – | – | – | – | inactive: 0.121 | –
25 | RPGR (UniProt Q92834) | – | – | inactive: 0.054 | – | – | – | – | – | inactive: 0.233 | –
26 | RPS6KA2 isoform 2 (UniProt Q15349) | inactive: 0.026 | inactive: -0.148 | inactive: 0.128 | inactive: -0.057 | inactive: -0.048 | inactive: 0.063 | inactive: -0.057 | inactive: -0.058 | – | –
27 | RNF34 isoform 2 (UniProt Q969K3) | – | inactive: 0.051 | inactive: 0.019 | inactive: -0.093 | inactive: -0.024 | inactive: -0.005 | inactive: -0.035 | inactive: -0.034 | inactive: 0.111 | inactive: -0.107
28 | RNF31 (UniProt Q96EP0) | inactive: 0.016 | – | inactive: 0.079 | – | inactive: 0.156 | – | – | – | inactive: 0.008 | –
29 | RPS6KB2 (UniProt Q9UBS0) | – | inactive: -0.434 | inactive: -0.015 | inactive: 0.187 | – | – | inactive: -0.257 | – | inactive: -0.075 | –
30 | RPS3 (UniProt E9PJN9) | – | – | – | – | inactive: -0.017 | inactive: 0.148 | – | inactive: -0.224 | – | –
31 | RPL7L1 (UniProt Q6DKI1) | – | inactive: -0.256 | inactive: -0.331 | – | inactive: 0.034 | inactive: -0.098 | inactive: -0.185 | inactive: -0.316 | – | inactive: -0.098
32 | ROCK1 (UniProt Q13464) | inactive: 0.016 | inactive: -0.017 | inactive: 0.042 | – | inactive: -0.025 | inactive: 0.027 | inactive: -0.025 | inactive: -0.069 | – | –
33 | RPRD1A (UniProt Q96P16) | inactive: -0.144 | – | inactive: 0.157 | – | inactive: -0.01 | inactive: 0.19 | – | inactive: 0.102 | inactive: 0.014 | inactive: -0.181
34 | RPS6KA5 (UniProt O75582) | – | inactive: -0.393 | inactive: 0.045 | – | – | – | inactive: -0.016 | inactive: 0.018 | – | –
35 | RRN3 (UniProt Q9NYV6) | – | inactive: -0.658 | inactive: 0.056 | – | inactive: -0.136 | – | inactive: -0.218 | – | – | –
36 | RPS21 (UniProt P63220) | inactive: -0.053 | inactive: 0.141 | inactive: -0.108 | inactive: 0.044 | inactive: 0.048 | inactive: -0.004 | inactive: -0.022 | inactive: 0.015 | – | –
37 | RPAIN isoform 8 (UniProt Q86UA6) | inactive: -0.024 | inactive: 0.144 | inactive: 0.385 | inactive: -0.039 | – | inactive: 0.078 | inactive: -0.04 | inactive: -0.155 | – | –
38 | RNFT1 (UniProt Q5M7Z0) | – | – | inactive: 0.05 | – | inactive: 0.023 | – | – | inactive: -0.01 | – | –

2 entries from above, tab-delimited:
Row	Target	log2 fold change [1]	log2 fold change (crizotinib)	log2 fold change [2]	log2 fold change [3]	log2 fold change (gandotinib)	log2 fold change [4]	log2 fold change (doramapimod)	log2 fold change (ispinesib)	log2 fold change (tozasertib)	log2 fold change (duvelisib)
5	RPS15 (UniProt P62841)	inactive: 0.032	inactive: 0	inactive: -0.174	active: 0.45	inactive: 0.137	inactive: -0.045	inactive: 0.032	inactive: -0.003	–	–
34	RPS6KA5 (UniProt O75582)	–	inactive: -0.393	inactive: 0.045	–	–	–	inactive: -0.016	inactive: 0.018	–	–
